Assay results from patent US11707477B2, “Formulation comprising a gemcitabine-prodrug” (NuCana plc, priority 2014, dated 2023).
Some entries share one result that the patent states for a list of compounds.

Assay: Preferred formulation system: stability
Type: physicochemical
Conditions: diluted to 100 mg/mL with 40%:40%:20% DMA:Tween 80:Kolliphor ELP
Method: The final administration formulation is then prepared by diluting this second formulation to the desired concentration with saline.

SMILES | time the (second) formulation is stable
C[C@H](N[P@](=O)(OC[C@H]1O[C@@H](n2ccc(N)nc2=O)C(F)(F)C1O)Oc1ccccc1)C(=O)OCc1ccccc1 (single isomer, unassigned; epimer 2) [S-epimer] | up to 5 days
C[C@H](NP(=O)(OC[C@H]1O[C@@H](n2ccc(N)nc2=O)C(F)(F)C1O)Oc1ccccc1)C(=O)OCc1ccccc1 (stereo partly drawn) [NUC-1031, 2′-Deoxy-2′,2′-difluoro-D-cytidine-5′-O-[phenyl (benzoxy-L-alaninyl)]phosphate] | up to 5 days
